# In PubChem BioAssay (NCATS):
# By UniProt entry, the sequences of proteins in these tests, tags left out. Where a name states a change or a piece, a line headed by the entry shows the natural chain unless it says otherwise.
# UniProt Q9BV86: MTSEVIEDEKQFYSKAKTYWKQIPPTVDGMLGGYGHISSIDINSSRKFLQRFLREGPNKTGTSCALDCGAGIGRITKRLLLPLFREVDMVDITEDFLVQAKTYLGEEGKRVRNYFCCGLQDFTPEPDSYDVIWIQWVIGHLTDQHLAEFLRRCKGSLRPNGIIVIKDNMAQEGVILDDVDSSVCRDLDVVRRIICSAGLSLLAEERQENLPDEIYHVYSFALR
# The inconclusive results got no clear call from the source; some entries with a clear call stand among them for comparison. Where the call is inconclusive, the potency comes from a doubtful curve fit. The source made the active and inactive calls. Calls follow the shape of the dose curve; as a rule, active = well fitted curve in the direction sought with a large enough effect; inconclusive = small, poorly fitted or top-dose-only effect, or another doubt; inactive = no such curve, though single readings can be large; an effect the other way counts as inactive or inconclusive.
# What was measured:
# [1] = qHTS of pediatric cancer cell lines to identify multiple opportunities for drug repurposing: Confirmatory screen for control Hh wild type fibroblast cells (AID 1347121); also: nearly all actives have a fitted effect of over 70% in size
# Procedure, shortened: (§1)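 Cells (500-1,000/well) in growth media were settled 5 h at 37 degrees C, then given compounds for 48 h. Viability was read as CellTiter-Glo luminescence. Primary runs used MIPE at 11 points (0.78 nM-46 µM) and NPC at 8 points (0.59 nM-46 µM); follow-ups used 11 points.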
# [2] = qHTS of pediatric cancer cell lines to identify multiple opportunities for drug repurposing: Confirmatory screen for Rh18 cells (AID 1347125); details: Rh18 rhabdomyosarcoma cells, viability; activity change, negative = cytotoxic: at 45.9 µM (top of the series); also: nearly all actives have a fitted effect of over 55% in size; as to activity change, negative = cytotoxic: % is scaled to controls: 0 for no effect and ±100 for the full control effect
# Procedure, shortened: as §1
# [3] = qHTS of pediatric cancer cell lines to identify multiple opportunities for drug repurposing: Confirmatory screen for Rh30 cells (AID 1347126); also: nearly all actives have a fitted effect of over 55% in size; as to activity change, negative = cytotoxic: % is scaled to controls: 0 for no effect and ±100 for the full control effect
# Procedure, shortened: as §1
# [4] = qHTS of pediatric cancer cell lines to identify multiple opportunities for drug repurposing: Confirmatory screen for Saos-2 cells (AID 1347127); also: nearly all actives have a fitted effect of over 60% in size;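 as to activity change, negative = cytotoxic: plate controls were DMSO for no effect and bortezomib for full effect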
# Procedure, shortened: as §1
# [5] = qHTS of pediatric cancer cell lines to identify multiple opportunities for drug repurposing: Confirmatory screen for SK-N-SH cells (AID 1347129);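 also: cells exposed to compound for 48 h before viability read; nearly all actives have a fitted effect of over 60% in size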;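 as to activity change, negative = cytotoxic: plate controls were DMSO for no effect and bortezomib control for full effect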
# Procedure, shortened: as §1
# [6] = qHTS of pediatric cancer cell lines to identify multiple opportunities for drug repurposing: Confirmatory screen for Rh41 cells (AID 1347123);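 also: 48 h compound exposure; nearly all actives have a fitted effect of over 60% in size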;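 as to activity change, negative = cytotoxic: plate controls were DMSO for no effect and bortezomib for full effect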
# Procedure, shortened: as §1
# [7] = qHTS of pediatric cancer cell lines to identify multiple opportunities for drug repurposing: Confirmatory screen for RD cells (AID 1347124); details: RD rhabdomyosarcoma cell viability; activity change, negative = cytotoxic: at 45.9 µM (top of the series);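 also: cells exposed to compound for 48 h before viability readout; nearly all actives have a fitted effect of over 65% in size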; as to activity change, negative = cytotoxic: % is scaled to controls: 0 for no effect and ±100 for the full control effect
# Procedure, shortened: as §1
# [8] = qHTS of pediatric cancer cell lines to identify multiple opportunities for drug repurposing: Confirmatory screen for OHS-50 cells (AID 1347128);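 also: compound exposure lasted 48 h at 37 degrees C; nearly all actives have a fitted effect of over 55% in size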; as to activity change, negative = cytotoxic: % is scaled to controls: 0 for no effect and ±100 for the full control effect
# Procedure, shortened: as §1
# [9] = qHTS of pediatric cancer cell lines to identify multiple opportunities for drug repurposing: Confirmatory screen for U-2 OS cells (AID 1347122); also: nearly all actives have a fitted effect of over 65% in size
# Procedure, shortened: as §1
# [10] = molecular target: N-terminal Xaa-Pro-Lys N-methyltransferase 1 (Homo sapiens) (UniProt Q9BV86); assay: qHTS Assay for Inhibitors of N-terminal methyltransferase 1 (NTMT1): LOPAC validation of the NTMT1 SAHH-coupled ThioGlo3 Assay (AID 1347143);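 also: SAH from peptide methylation measured as thiol fluorescence via SAHH coupling and ThioGlo3; nearly all actives have a fitted effect of over 70% in size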
# Procedure, shortened: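 In this qHTS pilot against the LOPAC set, 125nM NTMT1 met compounds tested at multiple concentrations, and fluorescence was normalized to background.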
# Potency is read from the fitted curve at half-maximal effect.
smiles,measurement,setting,value
COc1nc(N)nc2c1ncn2[C@@H]1O[C@H](CO)[C@@H](O)[C@@H]1O,Potency,[1],inactive
same,Potency,[2],"inconclusive: 0.0052 µM [rising, full curve, poor fit]"
same,Potency,[3],"inconclusive: 29.3 µM [cytotoxic, single point]"
CC(C=CC(=O)NO)=C[C@@H](C)C(=O)c1ccc(N(C)C)cc1,Potency,[1],active: 6.57 µM
same,Potency,[2],active: 0.928 µM
same,Potency,[3],inactive
same,Potency,[4],active: 1.85 µM
same,Potency,[5],active: 2.96 µM
COc1cccc(Nc2c(C(N)=O)cnc3c(C)cc(S(=O)(=O)c4cccc(C(=O)N(C)C)c4)cc23)c1,Potency,[6],"inconclusive: 1.29 µM [cytotoxic, partial curve, poor fit]"
same,Potency,[7],"inconclusive: 5.74 µM [cytotoxic, single point]"
same,Potency,[2],"inconclusive: 0.456 µM [cytotoxic, full curve, poor fit]"
same,Potency,[3],"inconclusive: 2.04 µM [cytotoxic, partial curve]"
same,Potency,[4],inactive
same,Potency,[8],inactive
NCC(=O)Nc1ccc(-n2nc(C(F)(F)F)cc2-c2ccc3c(ccc4ccccc43)c2)cc1,Potency,[1],"inconclusive: 0.522 µM [cytotoxic, full curve]"
same,Potency,[7],active: 5.22 µM
same,Potency,[3],"inconclusive: 0.329 µM [cytotoxic, full curve, poor fit]"
same,Potency,[8],"inconclusive: 1.31 µM [cytotoxic, full curve]"
same,Potency,[5],"inconclusive: 26.4 µM [cytotoxic, single point]"
Cc1c(CN2CCN(S(C)(=O)=O)CC2)sc2c(N3CCOCC3)nc(-c3cnc(N)nc3)nc12,Potency,[1],"inconclusive: 0.261 µM [cytotoxic, full curve]"
same,Potency,[7],"inconclusive: 2.08 µM [cytotoxic, full curve]"
same,Potency,[3],"inconclusive: 26.1 µM [cytotoxic, single point]"
same,Potency,[8],active: 2.33 µM
CC(C)C[C@H](NC(=O)[C@@H](NC(=O)c1cccc(-c2ccccc2)n1)[C@@H](C)O)B(O)O,Potency,[1],active: 20.8 µM
same,Potency,[3],active: 3.29 µM
same,Potency,[8],active: 0.131 µM
CCC(c1ccc(O)cc1)C(CC)c1ccc(O)cc1 (stereo not drawn),Potency,[9],inactive
same,Potency,[6],"inconclusive: 36.9 µM [cytotoxic, partial curve, poor fit]"
same,Potency,[2],"inconclusive: 9.27 µM [cytotoxic, full curve]"
same,Potency,[3],"inconclusive: 10.4 µM [cytotoxic, full curve, poor fit]"
same,Potency,[8],"inconclusive: 36.9 µM [cytotoxic, single point]"
same,Potency,[5],inactive
CN1CCN(c2ncc(-c3cc(Cl)cc(Cl)c3Cl)c(N)n2)CC1,Potency,[9],inactive
same,"activity change, negative = cytotoxic",[2],inconclusive: -37.6% [cytotoxic]
same,Potency,[3],"inconclusive: 0.0059 µM [rising, full curve, poor fit]"
same,Potency,[5],active: 20.9 µM
COC1=C2C[C@@H](C)C[C@H](OC)[C@@H](O)[C@@H](C)C=C(C)[C@H](OC(N)=O)[C@@H](OC)C=CC=C(C)C(=O)NC(=CC1=O)C2=O,Potency,[1],"inconclusive: 7.37 µM [cytotoxic, full curve, poor fit]"
same,Potency,[7],active: 0.928 µM
same,Potency,[4],active: 0.928 µM
N#CC(=C1Nc2ccccc2S1)c1ccnc(OCc2ccc(CN3CCOCC3)cc2)n1,Potency,[9],inactive
same,Potency,[6],inactive
same,Potency,[7],inactive
same,Potency,[4],"inconclusive: 0.0465 µM [rising, full curve, poor fit]"
same,Potency,[8],"inconclusive: 23.3 µM [cytotoxic, partial curve, poor fit]"
Cc1cccc(N(C)C(=S)Oc2ccc3ccccc3c2)c1,Potency,[9],"inconclusive: 29.3 µM [cytotoxic, single point]"
same,Potency,[6],"inconclusive: 18.5 µM [cytotoxic, partial curve]"
same,Potency,[3],inactive
OCCn1cc(-c2ccc3c(c2)CCC3=NO)c(-c2ccncc2)n1,Potency,[6],"inconclusive: 12 µM [cytotoxic, single point]"
same,Potency,[7],active: 8.51 µM
same,Potency,[3],"inconclusive: 6.03 µM [cytotoxic, full curve]"
same,Potency,[4],"inconclusive: 0.465 µM [rising, full curve]"
CC(C)(C)OC(=O)Nc1ccc(-c2cc(C(=O)NCCCCCCC(=O)NO)no2)cc1,Potency,[6],active: 1.85 µM
same,Potency,[3],active: 10.4 µM
same,Potency,[4],"inconclusive: 7.37 µM [cytotoxic, partial curve, poor fit]"
same,Potency,[8],"inconclusive: 4.14 µM [cytotoxic, full curve]"
S=P(N1CC1)(N1CC1)N1CC1,Potency,[6],"inconclusive: 11.7 µM [cytotoxic, full curve, poor fit]"
same,Potency,[7],inactive
same,Potency,[3],inactive
same,Potency,[8],inactive
same,Potency,[5],"inconclusive: 20.9 µM [cytotoxic, partial curve, poor fit]"
CC(C)NC[C@@H](C(=O)N1CCN(c2ncnc3c2[C@H](C)C[C@H]3O)CC1)c1ccc(Cl)cc1,Potency,[7],"inconclusive: 2.61 µM [cytotoxic, full curve, poor fit]"
same,Potency,[2],"inconclusive: 2.61 µM [cytotoxic, full curve]"
same,Potency,[4],active: 6.57 µM
same,Potency,[8],"inconclusive: 14.7 µM [cytotoxic, partial curve]"
CC(C)C[C@H](NC(=O)c1cc2ccccc2s1)C(=O)N1CCN(C(=O)[C@H](CO)NS(=O)(=O)c2ccc(Cl)cc2Cl)CC1,Potency,[7],"inconclusive: 32.9 µM [cytotoxic, single point]"
same,Potency,[2],inactive
same,Potency,[3],"inconclusive: 32.9 µM [cytotoxic, single point]"
same,Potency,[4],"inconclusive: 18.5 µM [cytotoxic, single point]"
same,Potency,[8],"inconclusive: 23.3 µM [cytotoxic, single point]"
same,Potency,[5],"inconclusive: 26.4 µM [cytotoxic, single point]"
NC(N)=Nc1nc(CSCCC(N)=NS(N)(=O)=O)cs1,Potency,[6],inactive
same,Potency,[3],inactive
same,Potency,[5],inactive
Cc1cnc(-c2cc(N3CCN(C(=O)CCS(C)(=O)=O)CC3)ncc2Cl)c(C)c1,Potency,[6],"inconclusive: 16.5 µM [cytotoxic, partial curve, poor fit]"
same,Potency,[4],inactive
COc1ccc(-c2ccc3cc(C(=O)O)ccc3c2)cc1C12CC3CC(CC(C3)C1)C2,Potency,[6],inactive
same,Potency,[7],"inconclusive: 3.69 µM [cytotoxic, partial curve, poor fit]"
same,Potency,[3],"inconclusive: 0.928 µM [cytotoxic, full curve, poor fit]"
same,Potency,[4],"inconclusive: 6.57 µM [cytotoxic, full curve, poor fit]"
same,Potency,[8],"inconclusive: 8.27 µM [cytotoxic, full curve, poor fit]"
COc1cc2c(c(OC)c1OC)-c1ccc(OC)c(=O)cc1[C@@H](NC(C)=O)CC2,Potency,[6],"inconclusive: 0.0112 µM [cytotoxic, full curve, poor fit]"
same,Potency,[3],"inconclusive: 0.0251 µM [rising, full curve]"
same,Potency,[8],"inconclusive: 0.0316 µM [cytotoxic, full curve]"
same,Potency,[10],"inconclusive: 50.1 µM [inhibitor, partial curve]"
OC[C@H](Cc1ccccc1)Nc1nc(Oc2ccc3c(c2)CCC3)nc2c1ncn2Cc1ccc(-c2ccccc2)cc1,Potency,[6],"inconclusive: 36.9 µM [cytotoxic, single point]"
same,Potency,[3],"inconclusive: 0.465 µM [cytotoxic, full curve, poor fit]"
same,Potency,[4],"inconclusive: 11.7 µM [cytotoxic, partial curve]"
same,Potency,[8],"inconclusive: 13.1 µM [cytotoxic, partial curve]"
CCC(=O)N1CCN(c2ccc(-n3c(=O)ccc4cnc5ccc(-c6cnc7ccccc7c6)cc5c43)cc2C(F)(F)F)CC1,Potency,[6],"inconclusive: 11.7 µM [cytotoxic, partial curve, poor fit]"
same,Potency,[2],inactive
same,Potency,[4],"inconclusive: 1.04 µM [rising, partial curve, poor fit]"
same,Potency,[5],inactive
NCCCC(N)(C(=O)O)C(F)F (stereo not drawn),Potency,[6],inactive
same,Potency,[4],inactive
CN(C)CCCN1c2ccccc2CCc2ccc(Cl)cc21,Potency,[7],"inconclusive: 32.9 µM [cytotoxic, single point]"
same,Potency,[2],"inconclusive: 36.9 µM [cytotoxic, single point]"
same,Potency,[3],"inconclusive: 20.8 µM [cytotoxic, partial curve]"
same,Potency,[4],"inconclusive: 36.9 µM [cytotoxic, single point]"
same,Potency,[8],"inconclusive: 20.8 µM [cytotoxic, single point]"
same,Potency,[5],"inconclusive: 6.62 µM [cytotoxic, full curve, poor fit]"
same,Potency,[10],"inconclusive: 50.1 µM [inhibitor, partial curve]"
CCOc1ccn(-c2ccc(F)cc2)c(=O)c1C(=O)Nc1ccc(Oc2ccnc(N)c2Cl)c(F)c1,Potency,[6],"inconclusive: 7.37 µM [cytotoxic, full curve]"
same,Potency,[7],inactive
same,Potency,[2],"inconclusive: 5.85 µM [cytotoxic, partial curve, poor fit]"
same,Potency,[4],"inconclusive: 23.3 µM [cytotoxic, single point]"
same,Potency,[8],"inconclusive: 14.7 µM [cytotoxic, partial curve]"
O=C(NOC[C@H](O)CO)c1ccc(F)c(F)c1Nc1ccc(I)cc1F,Potency,[6],"inconclusive: 11.7 µM [cytotoxic, partial curve, poor fit]"
same,Potency,[7],inactive
same,Potency,[8],inactive
same,Potency,[5],"inconclusive: 1.32 µM [cytotoxic, partial curve, poor fit]"
COC(=O)Nc1nc2ccc(C(=O)c3ccccc3)cc2[nH]1,Potency,[6],"inconclusive: 0.293 µM [cytotoxic, full curve, poor fit]"
same,Potency,[7],"inconclusive: 1.31 µM [cytotoxic, full curve, poor fit]"
same,Potency,[4],"inconclusive: 1.04 µM [cytotoxic, full curve, poor fit]"
same,Potency,[5],inactive
C[C@]12CCC(=O)C=C1CC[C@@H]1[C@H]2[C@@H](O)C[C@@]2(C)[C@H]1CC[C@]2(O)C(=O)CO,Potency,[6],inactive
same,Potency,[7],inactive
same,Potency,[3],"inconclusive: 9.27 µM [cytotoxic, single point]"
same,Potency,[4],inactive

# Quoted from the listing for reference:
smiles,measurement,setting,value
OCCn1cc(-c2ccc3c(c2)CCC3=NO)c(-c2ccncc2)n1,Potency,[6],"inconclusive: 12 µM [cytotoxic, single point]"
same,Potency,[7],active: 8.51 µM
same,Potency,[3],"inconclusive: 6.03 µM [cytotoxic, full curve]"
same,Potency,[4],"inconclusive: 0.465 µM [rising, full curve]"
CC(C)(C)OC(=O)Nc1ccc(-c2cc(C(=O)NCCCCCCC(=O)NO)no2)cc1,Potency,[6],active: 1.85 µM
same,Potency,[3],active: 10.4 µM
same,Potency,[4],"inconclusive: 7.37 µM [cytotoxic, partial curve, poor fit]"
same,Potency,[8],"inconclusive: 4.14 µM [cytotoxic, full curve]"
S=P(N1CC1)(N1CC1)N1CC1,Potency,[6],"inconclusive: 11.7 µM [cytotoxic, full curve, poor fit]"
same,Potency,[7],inactive
same,Potency,[3],inactive
same,Potency,[8],inactive
same,Potency,[5],"inconclusive: 20.9 µM [cytotoxic, partial curve, poor fit]"
